For assay [1], the target named is Chd4 (chromatin helicase DNA binding protein 4) (mouse (endogenous in heart)) (UniProt Q6PDQ2). The assay can be described thus: affinity purification with mass spectrometry; Chd4 immunoprecipitated with mouse monoclonal anti-Chd4 (ab70469) from nuclear extracts of 4-week-old WT mouse hearts; Chd4 cKO (Chd4corin) hearts as control; in-gel trypsin digestion, LC-MS/MS.

Protein sequences, listed by entry. Tags and fused reporters are not part of them.
UniProt Q6PDQ2: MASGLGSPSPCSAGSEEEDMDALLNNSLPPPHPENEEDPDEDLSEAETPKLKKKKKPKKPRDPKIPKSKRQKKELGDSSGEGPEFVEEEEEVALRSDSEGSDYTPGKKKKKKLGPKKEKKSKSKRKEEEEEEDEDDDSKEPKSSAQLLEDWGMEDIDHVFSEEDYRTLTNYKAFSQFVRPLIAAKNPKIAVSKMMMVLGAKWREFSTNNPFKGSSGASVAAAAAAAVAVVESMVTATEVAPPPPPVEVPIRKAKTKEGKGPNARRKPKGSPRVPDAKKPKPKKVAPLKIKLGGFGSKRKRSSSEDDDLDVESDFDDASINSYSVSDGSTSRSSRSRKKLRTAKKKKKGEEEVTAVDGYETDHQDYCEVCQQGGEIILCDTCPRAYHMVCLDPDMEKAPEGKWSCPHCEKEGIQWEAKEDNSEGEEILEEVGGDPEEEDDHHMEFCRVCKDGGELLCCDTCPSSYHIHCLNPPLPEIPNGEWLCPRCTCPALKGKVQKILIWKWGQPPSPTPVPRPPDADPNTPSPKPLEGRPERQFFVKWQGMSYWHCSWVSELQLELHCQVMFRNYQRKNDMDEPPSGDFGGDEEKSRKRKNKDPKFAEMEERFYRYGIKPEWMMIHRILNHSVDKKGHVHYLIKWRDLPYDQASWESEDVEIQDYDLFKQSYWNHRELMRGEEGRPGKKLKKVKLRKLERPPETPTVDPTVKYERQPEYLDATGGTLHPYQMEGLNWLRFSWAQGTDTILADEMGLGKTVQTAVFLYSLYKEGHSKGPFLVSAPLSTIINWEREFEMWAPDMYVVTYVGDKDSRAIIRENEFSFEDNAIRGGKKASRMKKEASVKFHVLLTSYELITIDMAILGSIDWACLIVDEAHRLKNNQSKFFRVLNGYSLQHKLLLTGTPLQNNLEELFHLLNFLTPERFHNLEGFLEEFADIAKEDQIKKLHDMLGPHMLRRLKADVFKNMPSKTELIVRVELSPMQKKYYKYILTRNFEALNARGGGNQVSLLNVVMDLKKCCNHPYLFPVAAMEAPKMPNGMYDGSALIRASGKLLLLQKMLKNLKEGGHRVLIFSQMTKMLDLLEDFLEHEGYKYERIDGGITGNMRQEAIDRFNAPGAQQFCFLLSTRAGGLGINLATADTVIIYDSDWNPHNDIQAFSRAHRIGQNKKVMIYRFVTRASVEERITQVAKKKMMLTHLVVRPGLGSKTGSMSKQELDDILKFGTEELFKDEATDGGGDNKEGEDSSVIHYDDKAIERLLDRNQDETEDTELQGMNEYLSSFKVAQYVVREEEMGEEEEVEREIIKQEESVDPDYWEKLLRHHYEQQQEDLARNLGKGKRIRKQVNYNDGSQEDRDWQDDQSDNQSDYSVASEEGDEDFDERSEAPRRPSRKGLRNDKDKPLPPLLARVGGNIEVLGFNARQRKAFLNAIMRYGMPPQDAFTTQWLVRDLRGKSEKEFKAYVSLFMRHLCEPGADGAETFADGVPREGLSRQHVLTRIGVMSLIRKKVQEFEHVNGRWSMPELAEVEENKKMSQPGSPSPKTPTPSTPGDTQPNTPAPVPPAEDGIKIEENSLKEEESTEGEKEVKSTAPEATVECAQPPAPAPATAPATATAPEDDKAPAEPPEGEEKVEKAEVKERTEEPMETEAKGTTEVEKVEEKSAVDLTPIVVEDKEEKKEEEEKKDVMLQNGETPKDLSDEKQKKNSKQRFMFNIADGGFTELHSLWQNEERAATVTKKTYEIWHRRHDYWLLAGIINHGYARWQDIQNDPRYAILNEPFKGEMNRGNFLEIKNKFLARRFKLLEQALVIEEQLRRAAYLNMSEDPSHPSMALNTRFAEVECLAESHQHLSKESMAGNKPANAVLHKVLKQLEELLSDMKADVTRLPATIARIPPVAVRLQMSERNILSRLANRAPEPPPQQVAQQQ

Assay [2] has as its target Chd4 (chromatin helicase DNA binding protein 4) (mouse (endogenous in heart)), Q6PDQ2. The description is as above. To be noted: remark: other sources report otherwise.

Results are given in words; binding and its absence hold for the method and conditions named. Binding seen in cells or lysates may run through a third protein. A yes stands for co-enrichment or nearness to the bait. Other partners may have been found. For part of these data: A no says only that the protein was not detected with the bait.

B1: Znf219 (protein, UniProt Q6IQX8 1-726)
chain: MEGSRPRILVGHLEPSPPAFDGELDLQRYSNGPGVSGTPGPGSPGMGAVGWSETRAGERRFPCPVCGKRFRFNSILALHLRAHPGAQAFQCPHCGHRAAQRALLRSHLRTHQPERPRSPAARLLLELEERALLREARLGRARSSGGMQSSPAAEGLARPQVPSSSAFRCPFCKGKFRTSAERERHLHILHRPWKCSLCSFGSSQEEELLHHSLTAHGASERPLAATSTPEPPPPPQQEPRSALEPEPEPEPRPEPDREANPAPTPAPPEEPPAPPEFRCQVCGQSFTQSWFLKGHMRKHKASFDHACPVCGRCFKEPWFLKNHMKVHTSKLGPLRAPGPGSAPARAPQPPDLSLLAYEPLGPALLLAPAPAPAERREPPSLLGYLSVRAGEVRPNGEGADPGGGRSYGGFRPLPSALPNRARRHRTEEPEEEEEVVEAEEESWARGRSLGSLTSLHPNPGEGSGQPAPAAGTQARSTATQEENGLLVGGTRSEAGRGATGKDCPFCGKSFRSAHHLKVHLRVHTGERPYKCPHCDYAGTQSGSLKYHLQRHHREQRSSAGPGPPPEPPPPSQRGSLQPQSGAKPTQASATWVEGTASTRPPSSSTGPGSRRKPASPGRTLRNGRGGEAEPLDLSLRAGPGGEAGAGGALHRCLFCPFATGAPELMALHLQVHHSRRARGRRQPRADTSPTYVRAPSGETPPSPPLEEEGSPGLSRSGEAGLGGQER
For the molecule B1, the binding entry in assay [1] is recorded as “binds”.

B2: Zbtb20 (protein, UniProt Q8K0L9 1-741)
chain: MLERKKPKTAENQKASEENEITQPGGSSAKPALPCLNFEAVLSPAPALIHSTHSLTNSHAHTGSSDCDISCKGMTERIHSINLHNFSNSVLETLNEQRNRGHFCDVTVRIHGSMLRAHRCVLAAGSPFFQDKLLLGYSDIEIPSVVSVQSVQKLIDFMYSGVLRVSQSEALQILTAASILQIKTVIDECTRIVSQNVGDVFPGIQDSGQDTPRGTPESGTSGQSSDTESGYLQSHPQHSVDRIYSALYACSMQNGSGERSFYSGAVVSHHETALGLPRDHHMEDPSWITRIHERSQQMERYLSTTPETTHCRKQPRPVRIQTLVGNIHIKQEMEDDYDYYGQQRVQILERNESEECTEDTDQAEGTESEPKGESFDSGVSSSIGTEPDSVEQQFGAAAPRDGQAEPAQPEQAAEAPAESSAQPNQLEPGASSPERSNESEMDNTVITVSNSSDKGVLQQPSVNTSIGQPLPSTQLYLRQTETLTSNLRMPLTLTSNTQVIGTAGNTYLPALFTTQPAGSGPKPFLFSLPQPLTGQQTQFVTVSQPGLSTFTAQLPAPQPLASSAGHSTASGQGDKKPYECTLCNKTFTAKQNYVKHMFVHTGEKPHQCSICWRSFSLKDYLIKHMVTHTGVRAYQCSICNKRFTQKSSLNVHMRLHRGEKSYECYICKKKFSHKTLLERHVALHSASNGTPPAGTPPGARAGPPGVVACTEGTTYVCSVCPAKFDQIEQFNDHMRMHVSDG
On to B2, for which the binding entry in assay [1] is “binds”.

B3: Tbx5, P70326 1-518 (protein)
chain: MADTDEGFGLARTPLEPDSKDRSCDSKPESALGAPSKSPSSPQAAFTQQGMEGIKVFLHERELWLKFHEVGTEMIITKAGRRMFPSYKVKVTGLNPKTKYILLMDIVPADDHRYKFADNKWSVTGKAEPAMPGRLYVHPDSPATGAHWMRQLVSFQKLKLTNNHLDPFGHIILNSMHKYQPRLHIVKADENNGFGSKNTAFCTHVFPETAFIAVTSYQNHKITQLKIENNPFAKGFRGSDDLELHRMSRMQSKEYPVVPRSTVRHKVTSNHSPFSSETRALSTSSNLGSQYQCENGVSGPSQDLLPPPNPYPLAQEHSQIYHCTKRKDEECSSTEHPYKKPYMETSPSEEDTFYRSGYPQQQGLSTSYRTESAQRQACMYASSAPPSEPVPSLEDISCNTWPSMPSYSSCTVTTVQPMDRLPYQHFSAHFTSGPLVPRLAGMANHGSPQLGEGMFQHQTSVAHQPVVRQCGPQTGLQSPGGLQPPEFLYTHGVPRTLSPHQYHSVHGVGMVPEWSENS
Regarding B3, in assay [2], the binding result is “no binding”.

The values are drawn from PMC9455175.
